# Library screening results

A: 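Whole-cell assay for inhibitors of Mycobacterium tuberculosis growth, labelled Cornell in the record; the read-out is not stated. The concentration is filed as 10 mM, unlikely as a test dose, so the dose is not known. Higher means stronger inhibition (inferred from two other growth screens of the library). Size under these conditions: about 53,000 compounds, about 900 of them at 50% or above in at least one test.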
B: 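Assay on Mycobacterium tuberculosis, filed only as a heat shock assay from Cornell; the read-out is not stated. The concentration is filed as 10 mM, unlikely as a test dose, so the dose is not known. Higher reads as stronger inhibition (inferred: compounds with an IC50 in retests scored well above the rest). Of about 69,000 compounds tested this way, about 930 (1.4%) reached 50% or more in at least one test.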

Values are the deposited “Percent Effect”, in %. How 0% and 100% were set is not recorded. Most values in the screen are low, and negative values occur. This is an unselected part of the compounds tested.

With COc1cccc(C(=O)N2CCN(C(=O)CCn3ccnc3)CC2)c1 the screen gave A: -1.989%; B: 6.776%. COCCCC(=O)Nc1cccnc1N1CCCCC1 read A: 23.31%; B: 11.73%. O=C(O)C(F)(F)F.c1csc(CN2CCC3(CCOCC3COCC3CC3)CC2)n1 (centres unmarked) read A: -2.981%; B: 36.14%. Result for NCc1cnn(-c2ccccc2C(=O)NCCCn2ccnc2)c1 was A: 9.119%; B: -17.44%.

With COc1c(CNC2CCC(O)CC2)c(C(C)C)nn1C (centres unmarked) the screen gave A: 2.919%; B: 2.464%. Result for O=C(COc1ccc2c(c1)CCC2)N1CCCC1c1ccc[nH]1 (centres unmarked) was A: 107.5%; B: -8.952%. With Cc1c(C(=O)NCc2ccnc(OCC(F)(F)F)c2)cnn1C the screen gave B: 1.415%. With CCc1cc(NCCN2CCNC2=O)n2nc(C)c(C)c2n1 the screen gave A: -22%; B: -8.001%.

For CCOCC1CN(S(=O)(=O)N(C)C)Cc2cnn(CC)c21.O=C(O)C(F)(F)F (centres unmarked) the result was A: 3.04%; B: 6.264%. For COc1cccc(CC(=O)N2CCc3ncnc(NC(C)C)c3CC2)c1 the result was A: -1.865%; B: -13.45%. CN1CCN(CCCNC(=O)c2nc3ccccc3c(=O)[nH]2)CC1 gave A: 20.24%; B: -15.74%. Cc1nc[nH]c1C(=O)N1CCC2(CC1)CN(CCN(C)C)C(=O)O2 gave A: -4.14%; B: 17.79%.

With CCS(=O)(=O)NCCN1CCc2ccc(F)cc2C1C (centres unmarked) the screen gave B: 5.514%. Result for Cn1cc(CN2CCCCC2c2ccc(-c3cnn(C)c3)nc2)cn1 (centres unmarked) was A: 0.8308%; B: 10.78%. With OCCC1CN(c2ncnc3[nH]cnc23)CCN1Cc1cccs1 (centres unmarked) the screen gave A: 8.002%; B: -1.622%. With O=C(NCCN1CCNCC1)c1nc2ccccc2c(=O)[nH]1 the screen gave B: -4.075%.

Result for COc1cc(OC)cc(N2CCC(NCc3cccs3)C2=O)c1 (centres unmarked) was A: 8.667%; B: -28.01%. For CC1CN(C)CCN1C(=O)c1cnn(-c2cccc(Cl)c2)c1 (centres unmarked) the result was A: -68.41%; B: -9.355%. c1ccc2c(c1)COC1(CCCCC1)N2 read A: -39.15%; B: 0.2721%. CCn1c(C)nnc1CN(C)C1CCN(CCS(=O)(=O)CC)C1 (centres unmarked) read B: 0.4299%.

Cc1nc(CNCC2CNc3ccnn3C2)cs1 (centres unmarked) read A: -49.78%; B: -3.867%. Result for CCC(C)NC(=O)NCc1cc2n(n1)CCCN(C1CCCCC1)C2 (centres unmarked) was A: -10.73%; B: 15.62%. Result for c1ccc(OCCCNCc2cccs2)nc1 was A: 13.34%; B: -25.88%. O=C(c1cnccn1)N1CCC2(CC1)CC(Oc1ccccc1)CO2 (centres unmarked) read B: -32.1%.

COc1c(CNCc2ccnc(N(C)C)c2)c(C(C)C)nn1C read B: 9.567%. CCc1nnc2n1CCN(C(=O)c1ccc3[nH]cnc3c1)C2 gave A: -8.644%; B: -18.63%. Cc1ccn(CCC(=O)N2CCOC(c3nc(-c4cccs4)no3)C2)n1 (centres unmarked) gave B: -20.58%. Cn1cc(CN2CCC3(CCCCN3S(C)(=O)=O)CC2)cn1 gave A: 14.04%; B: -1.175%.

Nc1ncc(C(=O)N2CCN(c3nccs3)CC2)cc1Cl read A: 15.25%; B: -41.61%. COc1ccc(F)c(F)c1CN1CCC2(CC1)[C@H](O)C[C@@H]2OCCN read A: 14.24%; B: -19.17%. O=C(NCc1cccnc1)[C@H]1CN2CCC1C[C@@H]2Cn1cc(CO)nn1 (some centres unmarked) read B: -6.165%. For COC(=O)C(NC(=O)c1ccco1)c1cc(F)ccc1F (centres unmarked) the result was A: 104.5%; B: -4.746%.

With CC(C)(C)c1ncc2c(n1)CN(C(=O)c1ccc(C#N)nc1)C2 the screen gave A: 1.02%; B: -19.8%.

Some entries from above, unchanged:

* CC(C)(C)c1ncc2c(n1)CN(C(=O)c1ccc(C#N)nc1)C2 : A: 1.02%; B: -19.8%
* Cc1nc(CNCC2CNc3ccnn3C2)cs1 (centres unmarked) : A: -49.78%; B: -3.867%
* CN1CCN(CCCNC(=O)c2nc3ccccc3c(=O)[nH]2)CC1 : A: 20.24%; B: -15.74%

Measurements from “University of Dundee, Small-Polar-MMV Screening Library” (2021), ChEMBL document CHEMBL3988442.